# According to patent US20040253247A1:
# The chains behind the UniProt entries cited, without tags or fusion partners. Residues count along the entry.
# UniProt P02768, residues 25-609: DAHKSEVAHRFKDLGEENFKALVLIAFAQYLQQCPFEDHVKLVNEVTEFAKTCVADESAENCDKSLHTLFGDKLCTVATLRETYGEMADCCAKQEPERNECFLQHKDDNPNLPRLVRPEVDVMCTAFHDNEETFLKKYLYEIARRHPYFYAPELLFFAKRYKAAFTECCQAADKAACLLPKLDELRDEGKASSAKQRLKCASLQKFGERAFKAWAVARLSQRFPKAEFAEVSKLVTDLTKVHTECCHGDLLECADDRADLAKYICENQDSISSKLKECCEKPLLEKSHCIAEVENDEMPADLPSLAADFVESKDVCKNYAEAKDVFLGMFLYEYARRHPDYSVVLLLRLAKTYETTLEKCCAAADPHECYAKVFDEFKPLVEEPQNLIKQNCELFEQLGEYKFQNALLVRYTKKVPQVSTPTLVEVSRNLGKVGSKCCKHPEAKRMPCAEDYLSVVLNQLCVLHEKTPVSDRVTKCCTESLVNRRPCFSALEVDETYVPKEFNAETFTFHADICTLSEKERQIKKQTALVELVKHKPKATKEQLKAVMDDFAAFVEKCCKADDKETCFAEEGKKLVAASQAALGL
# UniProt P02770, residues 25-608: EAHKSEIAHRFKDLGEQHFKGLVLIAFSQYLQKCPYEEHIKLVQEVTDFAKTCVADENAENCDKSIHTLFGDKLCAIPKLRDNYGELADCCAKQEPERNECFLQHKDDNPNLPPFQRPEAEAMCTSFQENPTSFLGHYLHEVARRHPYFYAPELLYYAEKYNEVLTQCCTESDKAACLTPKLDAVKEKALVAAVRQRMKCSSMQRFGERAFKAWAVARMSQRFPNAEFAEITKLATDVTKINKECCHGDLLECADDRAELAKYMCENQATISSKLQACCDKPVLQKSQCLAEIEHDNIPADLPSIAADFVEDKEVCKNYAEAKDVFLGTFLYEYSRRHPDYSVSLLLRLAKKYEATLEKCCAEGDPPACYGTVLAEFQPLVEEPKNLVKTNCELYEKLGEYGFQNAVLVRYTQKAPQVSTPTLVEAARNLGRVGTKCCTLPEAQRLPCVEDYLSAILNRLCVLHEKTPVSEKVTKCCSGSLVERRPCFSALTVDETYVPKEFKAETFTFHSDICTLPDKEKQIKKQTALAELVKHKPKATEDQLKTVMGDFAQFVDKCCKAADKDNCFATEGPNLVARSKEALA
# No constants are given. Whether binding was seen depends on the method and setting. Some binding calls cover weakened binding; strength is not graded here. For part of these data: Tags and fused reporters may be left off the sequences shown.
# Molecular target: human albumin (human) (UniProt P02768)
# Test: phage ELISA
row,Binder,binding
1,GTEVCYFPGICWGGG [HBC-H3],binds
2,DMCYFPGICWL [HC-H13],binds
3,MEPSRSVCYAEGICFDRGEQ [HB-H8],binds
4,TTEMCYFPGICWKTE [HBC-H14],binds
5,RDTVCYFPGICWMAS [HBC-H18],binds
6,ELCYFPGICWM [HC-H20],binds
7,RTAESLVCYWPGICFAQSER [HB-H18],binds
8,DVCYFPGICWM [HC-H8],binds
9,VQEVCYFPGICWMQE [HBC-H10],binds
10,ETCYFPGICWL [HC-H12],binds
11,KTEICYFPGICWMSG [HBC-H15],binds
12,EMCYFPGICWT [HC-H9],binds
13,GVRTFCQDWPAHNSCKLLRG [HA-H73],binds
14,IVEMCYYPGICWISP [HB-H10],binds
15,HAEICYFPGICWTER [HBC-H17],binds
16,EVCYFPGICWE [HC-H16],binds
17,GRSFCMDWPAHKSCTPLML [HA-H83],binds
18,EICYFPGICWM [HC-H17],binds
19,SREVCYYPGICWNGA [HBC-H2],binds
20,VRDMCYFPGICWKSE [HBC-H19],binds
21,KTCYFPGICWM [HC-H10],binds
22,KLCYFPGICWS [HC-H2],binds
23,ELCYFPGICWT [HB-H13],binds
24,EVCYFPGICWF [HC-H11],binds

# Next, values leading:
row,binding,Binder
1,binds,ELCYFPGICWP [HC-H15]
2,binds,EMCYFPGICWS [HC-H7]
3,binds,REPASLVCYFEDICFVRAEA [HB-H3]
4,binds,EICYFPGICWI [HB-H12]
5,binds,GGEICYFPGICRVLP [HBC-H4]
6,binds,RGPDVCYWPSICFERSMP [HB-H6]
7,binds,EHDMCYFPGICWIAD [HBC-H6]
8,binds,QTELCYFPGICWNES [HBC-H13]
9,binds,EVCYFPGICWM [HC-H19]
10,binds,KVCYFPGICWM [HC-H5]
11,binds,RMPASLPCYWETICYESSEQ [HB-H16]
12,binds,DLCYFPGICWM [HC-H3]
13,binds,LVPERIVCYFESICYERSEL [HB-H4]
14,binds,RAPERWVCYWEGICFDRYEQ [HB-H1]
15,binds,LAEMCYFPGICWMSA [HBC-H7]
16,binds,DSEVCYFPGICWSGT [HBC-H1]
17,binds,ASEICYFPGICWMVE [HBC-H12]
18,binds,DICYIPGICWM [HC-H6]
19,binds,SYAPCYFPGICWMGN [HBC-H8]
20,binds,NDEICYFPGVCWKSG [HBC-H11]
21,binds,DMCYFPGICFN [HC-H18]
22,binds,SGAICYVPGICWTHA [HB-H7]
23,binds,QTRSFCADWPRHESCKPLRG [HA-H76]
24,binds,ALCYFPGICWM [HC-H14]
25,binds,GMCYFPGICWA [HC-H4]

# Molecular target: rat albumin (rat) (UniProt P02770)
# Test: phage ELISA
row,Binder,binding
1,DICLPVWGCLW [RC-R3],binds
2,FEDLCVVRWGCLWGD [RBC-R6],binds
3,KSRMGDFCLPEWGCLWGDEL [RB-R9],binds
4,DICLPVWGCLW [RC-R1],binds
5,QMQMSDFCLPQWGCLWGDGY [RB-R3],binds
6,QRLMWEICLPLWGCLWGDGL [RB-R5],binds
7,GRQVVDFCLPKWGCLWEEGL [RB-R2],binds
8,DICLPVWGCLW [RC-R10],binds
9,MDDLCLPNWGCLWGD [RBC-R2],binds

# More lines, now with the values ahead:
row,binding,Binder
1,binds,DFDLCLPDWGCLWDD [RBC-R10]
2,binds,WEDLCLPDWGCLWED [RBC-R5]
3,binds,DICLPVWGCLW [RC-R18]
4,binds,DTCVDLVRLGLECWG [RD]
5,binds,DICLPVWGCLW [RC-R12]
6,binds,FEDFCLPNWGCLWGS [RBC-R4]
7,binds,WDDICFRDWGCLWGS [RBC-R7]
8,binds,MDDICLHHWGCLWDE [RBC-R1]
9,binds,SEDFCLPVWGCLWED [RBC-R9]
10,binds,RNEDPCVVLLEMGLECWEGV [RA]
11,binds,QRQVVDFCLPQWGCLWGDGS [RB-R14]
12,binds,QRQIMDFCLPHWGCLWGDGF [RB-R10]
13,binds,ERQMEDFCLPQWGCLWGDGV [RB-R1]
14,binds,DICLPVWGCLW [RC-R2]
